PubChem BioAssay AID652243 | Drosophila RNAi Screening Center | 2013
The screen tested about 24,000 reagents; below is an unselected part of those with a known target gene and a result. Of all reagents, 246 (1%) got an active call. 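Plates not normalised; calls are printed but the firefly/Renilla ratio behind them is not deposited; fold cut for lowering reported inconsistently.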 Raw values are not corrected between plates. A number with no mark means an inactive call. Not given: the amount of reagent.

Screen: 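Fly genes required for human androgen receptor driven transcription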 (primary screen)
Cells: Drosophila S2R+ cells
Reagents: long dsRNA against Drosophila genes
Time to read-out: 72 h (48 h, then 24 h hormone)
Treatment: synthetic androgen R1881 at 10 nM for 24 h
Detection: 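Per-well raw luminescence of the androgen-driven firefly reporter and of the Renilla control, two replicates each, without normalisation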
Scale: firefly reporter light: higher = more light from androgen-responsive reporter; Renilla control light: higher = more constitutive control signal (cell number, transfection)
Rule for the call: 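Hit when the log firefly-to-Renilla ratio dropped or increased by a fixed fold versus the mean of GFP or LacZ controls across duplicate plates; lowering cut given as 1.5 and as 3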
Calls: active = hit: reporter lowered or raised; inactive = no hit

no.	gene	DRSC id	firefly reporter light, replicate 1	firefly reporter light, replicate 2	Renilla control light, replicate 1	Renilla control light, replicate 2
1	CG4363	DRSC04465	2.92e5	2.72e5	1.81e6	1.49e6
2	Gcn5 (Gcn5 acetyltransferase)	DRSC11248	1.32e6	8.45e5	1.20e6	9.18e5
3	Gcn5 (Gcn5 acetyltransferase)	DRSC26932	4.87e5	3.03e5	4.68e5	2.62e5
4	CG13634	DRSC14635	1.67e5	1.75e5	1.82e6	2.32e6
5	Ripalpha (RPA-interacting protein alpha)	DRSC02657	1.31e5	1.45e5	8.50e5	1.17e6
6	X11L	DRSC19958	2.99e5	3.03e5	1.89e6	1.71e6
7	X11L	DRSC19959	3.64e5 (active)	4.19e5	4.53e6	4.66e6
8	X11L	DRSC25616	2.25e5	2.62e5	6.02e5	3.67e5
9	Mtch	DRSC08679	8.25e5	9.32e5	1.15e6	9.99e5

An excerpt from the list above, for reference:
no.	gene	DRSC id	firefly reporter light, replicate 1	firefly reporter light, replicate 2	Renilla control light, replicate 1	Renilla control light, replicate 2
4	CG13634	DRSC14635	1.67e5	1.75e5	1.82e6	2.32e6
5	Ripalpha (RPA-interacting protein alpha)	DRSC02657	1.31e5	1.45e5	8.50e5	1.17e6

The list goes on:
no.	gene	DRSC id	firefly reporter light, replicate 1	firefly reporter light, replicate 2	Renilla control light, replicate 1	Renilla control light, replicate 2
10	Ir52a (Ionotropic receptor 52a)	DRSC06262	74240	83473	1.36e6	1.36e6
11	CG14495	DRSC06466	85296	65607	1.59e6	1.59e6
12	SdhA (Succinate dehydrogenase, subunit A (flavoprotein))	DRSC07547	8.86e5	1.26e6	1.24e6	1.41e6
13	CG7884	DRSC20065	1.29e5	1.25e5	5.91e5	4.03e5
14	CG7884	DRSC25412	5.02e5	6.98e5	5.08e5	7.85e5
15	CG33489	DRSC10588	2.14e5	2.35e5	2.48e6	1.68e6
16	CG33489	DRSC26653	3.15e5	2.97e5	4.14e5	4.15e5
17	CG5326	DRSC13568	53133	83950	73383	1.27e5
18	CG5326	DRSC15770	1.35e5	1.07e5	8.40e5	8.54e5
19	CG5326	DRSC23719	3.20e5	2.92e5	3.60e5	3.65e5
20	aqrs (aquarius)	DRSC14724	1.91e5	2.07e5	1.90e6	2.85e6
21	ab (abrupt)	DRSC01162	7397	8797	43922	50951
22	ab (abrupt)	DRSC23151	9.07e5	1.17e6	1.03e6	1.25e6
23	ab (abrupt)	DRSC23179	2.09e6	1.58e6	2.33e6	1.93e6
24	w-cup (world cup)	DRSC03048	2.54e5	2.17e5	1.79e6	1.29e6
